Results reported in patent publication US20110201587A1, “HSP90 INHIBITORS AND METHODS OF USE” (BIO HOLDING, INC., priority 2010, published 2011).
At least one compound was matched to its structure with a doubt left.

How the values were obtained:
LPS-stimulated PBMC = assay: Inhibition of cytokine production in LPS-stimulated PBMC; assay type: cell-based
HIV = assay: Inhibition of LPS- or IL-18-induced HIV production in U1 cells; assay type: cell-based
[1] = system: T- or M-tropic strain of HIV; assay: Inhibition of HIV infection of PBMC (HIV p24 antigen); assay type: cell-based, HIV-1
[2] = PBMC infected 4 hr, incubated 3 days, 100 nM geldanamycin

COC1=C2C[C@@H](C)C[C@H](OC)[C@H](O)[C@@H](C)/C=C(\C)[C@H](OC(N)=O)[C@@H](OC)/C=C\C=C(/C)C(=O)NC(=CC1=O)C2=O [geldanamycin]
inhibition of IL-6 (LPS-stimulated PBMC): potently inhibited | inhibition of IL-10 (LPS-stimulated PBMC): potently inhibited | inhibition of IL-113 (LPS-stimulated PBMC): potently inhibited | inhibition of Interleukin (IL)-8 (LPS-stimulated PBMC): potently inhibited | inhibition of HIV production (HIV; U1 cell model (HIV production)): completely inhibited | inhibition of IL-18-induced HIV production (HIV; U1 cells, 5 nM IL-18 overnight at 37° C., 500 nM geldanamycin): complete inhibition | inhibition of LPS-induced HIV production (HIV; U1 cells, 10 μg/ml LPS overnight at 37° C., 500 nM geldanamycin): complete inhibition | potency for IL-18-induced HIV production compared to LPS (HIV; U1 cells, lower concentrations (10 nM)): more potent | inhibition of T-tropic HIV strain ([1]; PBMC infected 4 hr, incubated 3 days, 10 nM geldanamycin): inhibited | inhibition of M-tropic HIV strain [1, 2]: significantly inhibited | inhibition of T-tropic HIV strain [1, 2]: significantly inhibited | inhibition of HIV production ([1]; PBMC model (HIV infection and production)): completely inhibited
